Reference: patent US20200124619A1, “BIOMARKERS FOR LIVER FUNCTION” (PharmK Corporation, priority 2017, published 2020)

Experiment: Plasma concentration of CP-I and CP-III by LC/MS in healthy subjects and subjects with liver disease (Child-Pugh score 7-9)
Format: in vivo, human
Procedure: Subjects who were ≥18 years old and have provided prior written informed consent to participated in this study. Group A: six healthy volunteers. Group B: six liver disease subjects who are diagnosed by a licensed physician with Child-Pugh Score (CPT) of 7-9.
Blood was collected in 2×10 mL labeled K2 EDTA Vacutainer tube and then immediately inverted 10 times gently. The tubes were then centrifuged for 15 minutes at 1500 rcf at 4° C. with light protection. The plasma was transferred to cryovials and stored in a dark −70° C. freezer until shipment for analysis.
An aliquot of 50 μL of plasma sample was treated with 0.1% perchloric acid (10:1 v:v) and mixed with 100 μL of acetonitrile containing internal standard (Terfenadine). The mixture was vortexed on a shaker for 15 minutes and subsequently centrifuged at 4000 rpm for 15 minutes. An aliquot of 70 μL of the supernatant was mixed with 70 μL of water for the injection to the LC/MS. Calibration standards and quality control samples were prepared by spiking the CP-I and CP-III into 2.5% BSA in water (treated with 0.1% perchloric acid) and then processed with the unknown samples. CP-I and CP-III calibration standards were prepared at molar concentrations of 0, 0.05, 1, 10, 20, 100 nM each. Separation of CP-I and CP-III was achieved using Shimadzu LC30AD system consisting of a Phenomenex Luna Phenyl-Hexyl column (100×2 mm, 5μ). The system was held at 40° C. and with a constant flow of 0.5 mL/min using a gradient comprising of Mobile phase A (10 mM ammonium formate in water with 0.1% formic acid) and mobile phase B (acetonitrile). The Liquid Chromatography (LC) program starting conditions are 25% B. At 1 minutes % B is increased to 50% over 10 min, and then further increased to 95% in 1 min, maintaining 95% B for 0.8 min and then decreasing to starting conditions (25% B) in 0.2 min and maintaining this until 13.5 min. A Triple Quad™ 5000 mass spectrometer was operated in positive electrospray ionization in MRM mode with the transitions of m/z 655.26>596.3 for CP-I and CP-III, m/z 472.183>436.126 for terfenadine (IS). The chromatographic peaks were processed using Analyst® software (version 1.6.2, AB SCIEX).

Row | Structure (SMILES) | Maximum fold change of CP-I (subjects with liver disease, over the mean concentration of CP-I in healthy subjects) | Increase of mean concentration of CP-I in plasma (subjects with liver diseases, Child-Pugh Score 7-9, compared to the healthy subjects, six per group) | CP-III concentration in plasma (group of healthy subjects, LLOQ 0.05 nM) | Mean plasma concentration of CP-III (subjects with liver disease (Child-Pugh Score 7-9))
1 | CC1=C(CCC(=O)O)c2cc3nc(cc4[nH]c(cc5[nH]c(cc1n2)c(CCC(=O)O)c5C)c(CCC(=O)O)c4C)C(CCC(=O)O)=C3C [CP-I, Coproporphyrin-I] | 10.6 fold | about 3.8 fold |  | 
2 | CC1=C(CCC(=O)O)c2cc3nc(cc4[nH]c(cc5[nH]c(cc1n2)c(C)c5CCC(=O)O)c(CCC(=O)O)c4C)C(CCC(=O)O)=C3C [CP-III, Coproporphyrin-III] |  |  | < LLOQ | 0.16 ± 0.05 nM
